US20140056968A1, “LIPOSOME FORMULATION COMPRISING AN ANTI-TUMOUR ACTIVE SUBSTANCE, METHOD FOR ITS PREPARATION AND PHARMACEUTICAL COMPOSITIONS COMPRISING IT” (WROCLAWSKIE CENTRUM BADAN EIT+ SP Z O.O., priority 2011, published 2014)
Structures can show the parent of a compound that is named as a salt. For at least one compound, name, drawing or mass did not settle the structure.

Test: Encapsulation efficiency of Epirubicin in HSPC/Chol/DSPE-PEG 2000 5.5:4:0.5 mol/mol liposomes using an ion gradient of an ammonium salt of a vitamin or derivative
Format: physicochemical
Details: drug:lipid 1:5 by mass

## COc1cccc2c1C(=O)c1c(O)c3c(c(O)c1C2=O)C[C@@](O)(C(=O)CO)C[C@@H]3O[C@H]1C[C@H](N)[C@@H](O)[C@H](C)O1 [Epirubicin, Epirubicin hydrochloride]
300 mM ammonium salt of folic acid pH 7.8 gradient, 10 minutes at 60° C., final lipid 15 mg/ml
  efficiency of drug encapsulation: 99%
300 mM ammonium salt of pantothenic acid gradient, 10 minutes at 60° C.
  efficiency of drug encapsulation: 97%
300 mM ascorbic acid ammonium salt gradient (pH 4.0), after 10 minutes at 60° C., final lipid 15 mg/ml
  encapsulation efficiency of the drug: 98%
300 mM methothrexate ammonium salt pH 7.8 gradient, 10 minutes at 60° C.
  drug encapsulation efficiency: 97%
